Test results: paper PMC10876508

Columns and labels:
[1] = molecular target: T1, OsARF17 in pBridge (yeast three-hybrid bait) (rice (Oryza sativa)) (UniProt Q653U3); assay: yeast three-hybrid; pBridge-OsARF17-OsIAA29 with OsIAA21-pGADT7 in yeast Y2H Gold; OsIAA29 co-expressed or not; growth on SD (-Met-His-Leu-Trp)
T1 sequence: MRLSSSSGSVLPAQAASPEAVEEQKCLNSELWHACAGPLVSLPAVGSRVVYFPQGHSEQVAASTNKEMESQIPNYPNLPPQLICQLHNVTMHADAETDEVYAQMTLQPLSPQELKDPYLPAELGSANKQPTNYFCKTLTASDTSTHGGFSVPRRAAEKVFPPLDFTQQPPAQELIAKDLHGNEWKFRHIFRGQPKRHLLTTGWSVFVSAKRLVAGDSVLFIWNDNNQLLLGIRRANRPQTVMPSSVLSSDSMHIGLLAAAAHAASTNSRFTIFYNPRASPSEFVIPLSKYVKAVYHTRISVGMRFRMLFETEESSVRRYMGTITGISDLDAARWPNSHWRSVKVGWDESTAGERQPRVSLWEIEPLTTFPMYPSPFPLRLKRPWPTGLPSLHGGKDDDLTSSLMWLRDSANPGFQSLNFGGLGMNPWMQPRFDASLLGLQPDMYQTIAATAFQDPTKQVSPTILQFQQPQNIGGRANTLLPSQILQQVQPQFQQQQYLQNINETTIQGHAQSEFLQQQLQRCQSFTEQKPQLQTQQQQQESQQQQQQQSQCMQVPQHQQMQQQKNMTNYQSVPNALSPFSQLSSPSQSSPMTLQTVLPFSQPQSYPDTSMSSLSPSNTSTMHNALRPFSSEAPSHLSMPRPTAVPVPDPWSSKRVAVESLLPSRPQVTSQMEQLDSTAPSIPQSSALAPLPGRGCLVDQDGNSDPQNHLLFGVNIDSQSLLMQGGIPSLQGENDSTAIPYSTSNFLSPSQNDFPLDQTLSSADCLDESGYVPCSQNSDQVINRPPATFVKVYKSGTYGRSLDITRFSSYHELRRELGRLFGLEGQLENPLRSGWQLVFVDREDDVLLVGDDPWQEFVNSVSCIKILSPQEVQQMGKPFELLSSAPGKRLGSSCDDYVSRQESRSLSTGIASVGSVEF

[2] = molecular target: T2, His-OsARF17 (rice (Oryza sativa)) (UniProt Q653U3); assay: pull-down; pull-down/protein competition assay: OsARF17-His and OsIAA29-GST with increasing amounts of OsIAA21-MYC; anti-His blot of the pull-down
T2 sequence: T1 sequence

[3] = molecular target: OsIAA29 fused to the DNA binding domain (BD), yeast two-hybrid (rice (Oryza sativa)); assay: two-hybrid; OsIAA29 in BD vector (pGBKT7), OsARF17 in AD vector (pGADT7), yeast AH109; growth on QDO (SD/-Leu/-Trp/-His/-Ade) with X-alpha-Gal
[4] = molecular target: GST-OsIAA29 (rice (Oryza sativa)); assay: pull-down; GST-OsIAA29 on Glutathione beads with His-OsARF17, incubated overnight at 4 °C, beads washed ten times; western blot with anti-GST or anti-His
[5] = molecular target: GST-OsIAA29 (rice (Oryza sativa)); assay: pull-down; pull-down/protein competition assay: OsARF17-His and OsIAA29-GST with increasing amounts of OsIAA21-MYC; anti-His blot of the pull-down
[6] = molecular target: OsIAA29-YFP^N (rice (Oryza sativa)); assay: split reporter; BiFC in rice protoplasts, OsIAA29 in pVYNE and OsARF17 in pVYCE, confocal microscopy

OsIAA29 co-expressed from pBridge-OsARF17-OsIAA29 (yeast three-hybrid, third protein) (rice (Oryza sativa))
binding [1]: binds

OsIAA21-pGADT7 (yeast three-hybrid prey) (rice (Oryza sativa))
binding [1]: binds

OsIAA21-MYC (rice (Oryza sativa))
binding [2]: binds

B1: OsARF17 fused to the activation domain (AD), yeast two-hybrid (protein, UniProt Q653U3 1-917)
chain: T1 sequence
binding [3]: binds

B2: His-OsARF17 (protein, UniProt Q653U3 1-917)
chain: T1 sequence
binding [4]: binds
binding [5]: binds

B3: OsARF17-YFP^C (protein, UniProt Q653U3 1-917)
chain: T1 sequence
binding [6]: binds

No constants are given. Whether binding was seen depends on the method and setting. A result given as binding can be weak or reduced; the word gives no strength. For some of these results: Sequences can lack the tags named with a protein. For some of these results: In cells and extracts the contact can be indirect.
